Measurements reported in the supplement of paper PMC10849652.
The list shows a part of the results. Residues, ends and D or L forms follow the SMILES beside them. *: point of attachment. Cbz = O=C(OCc1ccccc1)*

Amino acid sequences for entries named in this document (tags omitted). A change or cut given only in a name is not applied to a line headed by its entry.
UniProt Q5R3I4: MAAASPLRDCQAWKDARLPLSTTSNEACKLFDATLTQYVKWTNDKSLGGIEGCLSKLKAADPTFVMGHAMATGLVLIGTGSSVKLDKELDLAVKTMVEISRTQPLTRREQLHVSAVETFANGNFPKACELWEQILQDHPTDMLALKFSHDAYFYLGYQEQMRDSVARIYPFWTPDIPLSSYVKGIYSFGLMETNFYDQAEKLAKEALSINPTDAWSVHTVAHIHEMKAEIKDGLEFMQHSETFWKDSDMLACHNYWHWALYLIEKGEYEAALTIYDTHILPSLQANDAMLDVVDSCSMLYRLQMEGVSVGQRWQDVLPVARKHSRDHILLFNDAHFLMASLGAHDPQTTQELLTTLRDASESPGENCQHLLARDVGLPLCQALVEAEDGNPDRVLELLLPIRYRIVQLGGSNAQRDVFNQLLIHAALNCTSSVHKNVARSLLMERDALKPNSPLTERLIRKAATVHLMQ
UniProt Q96RT8, whole entry, looked up: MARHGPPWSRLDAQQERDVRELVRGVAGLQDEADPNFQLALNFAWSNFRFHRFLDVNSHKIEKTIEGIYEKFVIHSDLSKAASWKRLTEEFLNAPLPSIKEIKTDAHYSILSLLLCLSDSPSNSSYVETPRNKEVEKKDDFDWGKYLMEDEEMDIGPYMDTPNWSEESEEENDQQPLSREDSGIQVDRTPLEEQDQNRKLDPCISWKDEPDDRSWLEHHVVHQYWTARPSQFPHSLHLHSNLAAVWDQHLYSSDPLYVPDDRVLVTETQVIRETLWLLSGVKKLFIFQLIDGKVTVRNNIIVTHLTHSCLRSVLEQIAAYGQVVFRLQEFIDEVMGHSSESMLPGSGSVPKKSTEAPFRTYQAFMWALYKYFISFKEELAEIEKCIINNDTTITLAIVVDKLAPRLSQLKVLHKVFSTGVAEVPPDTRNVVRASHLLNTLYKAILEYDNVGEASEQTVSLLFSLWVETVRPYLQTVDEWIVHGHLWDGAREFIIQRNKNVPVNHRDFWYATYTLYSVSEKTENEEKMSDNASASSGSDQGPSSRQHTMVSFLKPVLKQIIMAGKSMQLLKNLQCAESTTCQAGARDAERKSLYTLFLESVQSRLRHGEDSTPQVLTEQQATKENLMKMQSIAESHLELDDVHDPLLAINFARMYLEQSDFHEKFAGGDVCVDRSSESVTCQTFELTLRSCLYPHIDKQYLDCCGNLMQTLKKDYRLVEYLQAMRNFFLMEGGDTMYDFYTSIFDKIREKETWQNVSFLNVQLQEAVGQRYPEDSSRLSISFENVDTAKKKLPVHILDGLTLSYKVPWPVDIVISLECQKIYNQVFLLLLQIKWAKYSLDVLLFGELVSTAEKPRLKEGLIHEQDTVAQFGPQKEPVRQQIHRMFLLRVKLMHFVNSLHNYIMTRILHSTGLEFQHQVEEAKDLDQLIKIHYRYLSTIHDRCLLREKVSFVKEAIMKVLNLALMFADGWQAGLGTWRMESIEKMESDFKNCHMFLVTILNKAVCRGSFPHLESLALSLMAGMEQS
UniProt Q9UGJ1, whole entry, looked up: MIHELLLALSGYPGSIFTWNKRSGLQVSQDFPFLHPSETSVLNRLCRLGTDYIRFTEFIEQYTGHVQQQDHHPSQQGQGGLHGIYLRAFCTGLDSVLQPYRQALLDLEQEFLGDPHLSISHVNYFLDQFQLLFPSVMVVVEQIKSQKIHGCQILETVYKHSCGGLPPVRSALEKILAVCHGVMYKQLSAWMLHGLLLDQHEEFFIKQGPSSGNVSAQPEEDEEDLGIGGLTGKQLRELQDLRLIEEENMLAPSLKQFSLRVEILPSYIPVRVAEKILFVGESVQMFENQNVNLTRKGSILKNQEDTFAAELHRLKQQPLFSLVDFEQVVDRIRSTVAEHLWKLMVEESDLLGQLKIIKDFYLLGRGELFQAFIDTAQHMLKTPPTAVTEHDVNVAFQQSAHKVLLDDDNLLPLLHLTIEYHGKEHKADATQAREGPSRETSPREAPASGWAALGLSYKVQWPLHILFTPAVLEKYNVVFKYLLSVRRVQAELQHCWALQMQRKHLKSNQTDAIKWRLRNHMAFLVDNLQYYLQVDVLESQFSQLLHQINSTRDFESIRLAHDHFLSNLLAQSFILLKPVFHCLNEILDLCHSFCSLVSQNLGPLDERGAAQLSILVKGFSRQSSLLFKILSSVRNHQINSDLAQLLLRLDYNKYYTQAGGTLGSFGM
UniProt Q86TV6: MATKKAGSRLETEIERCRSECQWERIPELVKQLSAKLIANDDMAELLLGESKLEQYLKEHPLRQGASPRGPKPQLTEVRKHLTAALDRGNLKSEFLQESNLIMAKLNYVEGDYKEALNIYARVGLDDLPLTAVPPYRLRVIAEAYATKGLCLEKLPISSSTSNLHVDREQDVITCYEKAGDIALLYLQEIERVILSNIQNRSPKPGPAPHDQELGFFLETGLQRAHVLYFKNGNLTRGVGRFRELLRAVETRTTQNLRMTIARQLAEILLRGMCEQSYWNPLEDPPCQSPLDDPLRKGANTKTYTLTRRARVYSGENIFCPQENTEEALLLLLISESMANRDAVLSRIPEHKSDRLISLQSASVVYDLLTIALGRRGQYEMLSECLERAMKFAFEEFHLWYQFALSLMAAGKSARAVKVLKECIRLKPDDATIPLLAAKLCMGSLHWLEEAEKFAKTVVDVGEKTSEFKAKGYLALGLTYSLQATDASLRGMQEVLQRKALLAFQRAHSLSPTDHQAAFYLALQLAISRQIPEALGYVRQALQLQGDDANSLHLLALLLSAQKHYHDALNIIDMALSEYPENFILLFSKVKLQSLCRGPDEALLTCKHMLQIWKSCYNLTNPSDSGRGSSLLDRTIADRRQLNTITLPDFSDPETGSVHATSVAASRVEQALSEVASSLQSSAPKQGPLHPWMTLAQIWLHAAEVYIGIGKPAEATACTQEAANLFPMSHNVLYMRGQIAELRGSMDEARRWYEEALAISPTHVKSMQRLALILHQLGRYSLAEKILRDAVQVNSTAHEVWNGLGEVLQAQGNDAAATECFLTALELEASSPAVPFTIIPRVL
UniProt Q6PID6, whole entry, looked up: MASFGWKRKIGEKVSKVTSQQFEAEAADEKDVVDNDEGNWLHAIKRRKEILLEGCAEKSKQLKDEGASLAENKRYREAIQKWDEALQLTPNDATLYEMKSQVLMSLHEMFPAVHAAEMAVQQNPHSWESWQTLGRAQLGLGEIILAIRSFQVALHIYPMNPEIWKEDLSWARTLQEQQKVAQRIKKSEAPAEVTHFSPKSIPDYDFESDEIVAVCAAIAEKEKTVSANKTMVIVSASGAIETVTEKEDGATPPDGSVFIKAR
UniProt A6NHL2: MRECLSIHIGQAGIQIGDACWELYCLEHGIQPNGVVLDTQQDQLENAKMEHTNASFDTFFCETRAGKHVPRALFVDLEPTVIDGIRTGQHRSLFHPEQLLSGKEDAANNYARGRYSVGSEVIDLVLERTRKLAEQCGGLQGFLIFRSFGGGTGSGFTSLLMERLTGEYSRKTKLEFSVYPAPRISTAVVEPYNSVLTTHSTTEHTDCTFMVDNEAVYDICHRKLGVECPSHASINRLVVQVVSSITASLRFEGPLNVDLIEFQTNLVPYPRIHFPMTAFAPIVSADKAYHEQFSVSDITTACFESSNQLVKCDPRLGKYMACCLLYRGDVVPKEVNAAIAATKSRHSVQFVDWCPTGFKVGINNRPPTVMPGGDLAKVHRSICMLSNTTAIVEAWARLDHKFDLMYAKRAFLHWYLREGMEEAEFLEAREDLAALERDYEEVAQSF
UniProt O43156, whole entry, looked up: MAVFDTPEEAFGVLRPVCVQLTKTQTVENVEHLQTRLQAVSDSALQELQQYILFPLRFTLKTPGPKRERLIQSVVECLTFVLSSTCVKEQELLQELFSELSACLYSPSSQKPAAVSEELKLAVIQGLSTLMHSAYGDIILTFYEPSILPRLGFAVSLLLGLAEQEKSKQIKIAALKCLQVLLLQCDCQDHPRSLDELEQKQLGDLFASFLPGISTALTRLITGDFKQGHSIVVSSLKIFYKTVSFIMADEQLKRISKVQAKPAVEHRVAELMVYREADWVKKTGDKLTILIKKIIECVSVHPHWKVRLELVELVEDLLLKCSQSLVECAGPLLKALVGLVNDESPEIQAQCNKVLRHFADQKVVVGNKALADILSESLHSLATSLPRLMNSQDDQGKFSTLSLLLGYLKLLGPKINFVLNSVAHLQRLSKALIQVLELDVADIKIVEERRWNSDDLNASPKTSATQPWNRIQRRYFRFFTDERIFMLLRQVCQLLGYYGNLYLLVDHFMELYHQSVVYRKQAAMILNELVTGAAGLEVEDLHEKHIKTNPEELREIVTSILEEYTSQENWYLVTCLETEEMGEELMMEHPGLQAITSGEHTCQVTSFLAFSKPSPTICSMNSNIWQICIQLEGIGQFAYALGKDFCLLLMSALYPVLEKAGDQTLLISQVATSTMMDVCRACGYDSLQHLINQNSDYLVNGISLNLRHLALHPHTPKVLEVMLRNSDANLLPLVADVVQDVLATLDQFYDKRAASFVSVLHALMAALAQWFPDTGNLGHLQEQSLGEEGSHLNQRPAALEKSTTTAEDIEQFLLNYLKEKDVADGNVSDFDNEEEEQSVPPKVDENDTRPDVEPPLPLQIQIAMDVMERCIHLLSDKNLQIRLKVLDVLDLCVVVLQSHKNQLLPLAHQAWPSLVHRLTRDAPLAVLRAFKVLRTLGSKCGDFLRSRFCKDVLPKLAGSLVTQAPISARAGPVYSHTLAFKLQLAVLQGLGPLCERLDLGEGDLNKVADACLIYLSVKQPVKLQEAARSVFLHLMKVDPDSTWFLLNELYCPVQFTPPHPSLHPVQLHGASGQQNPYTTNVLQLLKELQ
UniProt Q7Z3V4: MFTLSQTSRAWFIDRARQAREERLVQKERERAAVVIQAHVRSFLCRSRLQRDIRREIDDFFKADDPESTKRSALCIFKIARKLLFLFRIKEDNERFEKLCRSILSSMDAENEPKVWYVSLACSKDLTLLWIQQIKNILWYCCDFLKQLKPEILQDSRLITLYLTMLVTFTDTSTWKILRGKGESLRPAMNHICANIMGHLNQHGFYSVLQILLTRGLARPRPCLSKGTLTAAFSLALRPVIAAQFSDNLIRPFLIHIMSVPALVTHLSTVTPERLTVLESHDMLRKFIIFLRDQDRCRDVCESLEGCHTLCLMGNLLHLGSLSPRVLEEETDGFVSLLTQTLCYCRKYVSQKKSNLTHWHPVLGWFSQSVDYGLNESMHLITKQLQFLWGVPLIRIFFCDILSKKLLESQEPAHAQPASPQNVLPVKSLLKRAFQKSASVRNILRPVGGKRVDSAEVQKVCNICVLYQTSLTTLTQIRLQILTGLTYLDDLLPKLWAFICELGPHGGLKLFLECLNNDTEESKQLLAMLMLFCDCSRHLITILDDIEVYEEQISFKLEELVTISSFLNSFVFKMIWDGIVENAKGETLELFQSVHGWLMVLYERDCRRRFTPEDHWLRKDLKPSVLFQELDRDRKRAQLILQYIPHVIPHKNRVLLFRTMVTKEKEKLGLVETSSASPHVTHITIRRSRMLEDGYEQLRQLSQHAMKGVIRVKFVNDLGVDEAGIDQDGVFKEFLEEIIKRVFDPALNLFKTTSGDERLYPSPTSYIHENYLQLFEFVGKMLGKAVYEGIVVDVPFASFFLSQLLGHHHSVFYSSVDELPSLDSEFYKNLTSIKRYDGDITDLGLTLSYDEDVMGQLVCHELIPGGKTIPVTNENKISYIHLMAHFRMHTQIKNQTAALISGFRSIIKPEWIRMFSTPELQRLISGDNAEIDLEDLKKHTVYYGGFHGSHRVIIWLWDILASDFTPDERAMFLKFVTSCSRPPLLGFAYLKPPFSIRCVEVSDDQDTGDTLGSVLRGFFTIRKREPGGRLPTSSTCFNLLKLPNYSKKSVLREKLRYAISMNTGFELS

Key:
Assay in all cases: log2 fold change, soluble protein after heating vs DMSO (PISA); higher = thermal stabilisation; K562 cells, 10 uM, 30 min; active = over 0.2 and 3.5 SD of the protein, either way, in both replicates (recomputed)
IRAK-1-4 Inhibitor I = compound: C1COCCN1CCN2C3=CC=CC=C3N=C2NC(=O)C4=CC(=CC=C4)[N+](=O)[O-] [IRAK-1-4 Inhibitor I]
Outline: (§1)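 K562 cells at 2×10^6 cells/mL were given 10 μM compound for 30 min. Aliquots then went through 3 min of heating across 48°C-58°C, were pooled, and were extracted in PBS with 0.5% NP-40 at 4°C, and the supernatant after 21,000xg for 90 min was quantified by TMTpro 16plex LC-MS/MS with channel sums equalised. Thermal stability relative to control samples, from duplicates, is given as log2 fold change.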

ibrutinib = compound: C=CC(=O)N1CCC[C@@H](n2nc(-c3ccc(Oc4ccccc4)cc3)c3c(N)ncnc32)C1 [ibrutinib]
Outline: as §1

[1] = compound: CC(=O)c1cnc2ccc(-c3cc(Cl)c(O)c(Cl)c3)nc2c1N[C@H]1CC[C@H](CN(C)C)CC1
Outline: as §1

ralimetinib = compound: CC(C)(C)Cn1c(N)nc2ccc(-c3[nH]c(C(C)(C)C)nc3-c3ccc(F)cc3)nc21 [ralimetinib]
Outline: as §1

[2] = compound: CC(C)(O)CC(=O)NCCn1ccc2ncnc(Nc3ccc(Oc4cccc(C(F)(F)F)c4)c(Cl)c3)c21
Outline: as §1

[3] = compound: CC(C)C1=C2N=C(C=C(N2N=C1)NCC3=CC=CC=C3)NCCCCCCN
Outline: as §1

[4] = compound: CC(C)C[C@@H](C=O)NC(=O)[C@H](CC(C)C)NC(=O)[C@H](CC(C)C)NC(=O)OCc1ccccc1
Outline: as §1

pinometostat = compound: CC(C)N(C[C@H]1O[C@@H](n2cnc3c(N)ncnc32)[C@H](O)[C@@H]1O)[C@H]1C[C@@H](CCc2nc3cc(C(C)(C)C)ccc3[nH]2)C1 [pinometostat]
Outline: as §1

[5] = compound: CC1=C(C2=C(C=C1)C(=O)C3=CC=CC=C3N2CCCN)C
Outline: as §1

[6] = compound: CC1=C(C=C(C=C1)NC(=O)C2=CC(=CC=C2)C(C)(C)C#N)NC3=CC4=C(C=C3)N=CN(C4=O)C
Outline: as §1

[7] = compound: CC1=C(C=C(C=C1)NC(=O)C2=CC(=CC=C2)N(C)C)NC(=O)C3=CC=C(C=C3)O
Outline: as §1

[8] = compound: CC1=CC=C(C=C1)SC2=C3C=C(SC3=CN=C2)C(=O)N
Outline: as §1

[9] = compound: CC1=NC(=CC=C1)C2=C(N=C(N2)C(C)(C)C)C3=CC4=NC=CN=C4C=C3
Outline: as §1

Nexturastat A = compound: CCCCN(Cc1ccc(C(=O)NO)cc1)C(=O)Nc1ccccc1 [Nexturastat A]
Outline: as §1

vemurafenib = compound: CCCS(=O)(=O)Nc1ccc(F)c(C(=O)c2c[nH]c3ncc(-c4ccc(Cl)cc4)cc23)c1F [vemurafenib]
Outline: as §1

[10] = compound: CCCS(=O)(=O)Nc1ccc(F)c(C(=O)c2c[nH]c3ncc(Cl)cc23)c1F
Outline: as §1

[11] = compound: CCCc1cc(C)[nH]c(=O)c1CNC(=O)c1cc(-c2ccnc(N3CCN(C)CC3)c2)cc2c1cnn2C(C)C
Outline: as §1

givinostat = compound: CCN(CC)Cc1ccc2cc(COC(=O)Nc3ccc(C(=O)NO)cc3)ccc2c1 [givinostat]
Outline: as §1

barasertib = compound: CCN(CCCOc1ccc2c(Nc3cc(CC(=O)Nc4cccc(F)c4)[nH]n3)ncnc2c1)CCOP(=O)(O)O [barasertib]
Outline: as §1

[12] = compound: CC1=C(C(CC(=O)N1)C2=CC=C(C=C2)C(F)(F)F)C(=O)NC3=C(C=C4C(=C3)C=NN4)F
Outline: as §1

Measured: log2 fold change

TTC38 (UniProt Q5R3I4)
active: [5] 0.801 | Nexturastat A 1.05 | givinostat 0.938
inactive: IRAK-1-4 Inhibitor I 0.129 | ibrutinib -0.048 | [1] 0.023 | ralimetinib 0.017 | [2] -0.204 | [3] -0.06 | [4] -0.195 | pinometostat 0.027 | [6] -0.039 | [7] 0.405 | [8] 0.127 | [9] 0.019 | vemurafenib 0.031 | [10] 0.012 | [11] 0.141 | barasertib 0.023

TUBGCP5 (UniProt Q96RT8)
inactive: IRAK-1-4 Inhibitor I 0.064 | ibrutinib -0.09 | [2] 0.144 | [3] 0.293 | pinometostat 0.089 | [12] 0.076 | [5] -0.059 | [8] 0.016 | [9] -0.017 | Nexturastat A -0.081 | [10] -0.024 | givinostat -0.203 | barasertib 0.07

TUBGCP4 (UniProt Q9UGJ1)
inactive: IRAK-1-4 Inhibitor I -0.194 | ibrutinib 0.332 | [1] 0.109 | ralimetinib 0.194 | [3] -0.101 | [4] -0.005 | pinometostat 0.326 | [5] -0.005 | [6] -0.211 | [7] -0.036 | [8] -0.002 | [9] -0.013 | [10] 0.149 | givinostat 0.165 | barasertib -0.158

TTC7B isoform 2 (UniProt Q86TV6)
inactive: IRAK-1-4 Inhibitor I -0.037 | ibrutinib 0.149 | [1] -0.202 | ralimetinib 0.042 | [3] -0.02 | [4] 0.037 | pinometostat -0.112 | [12] -0.019 | [5] 0.205 | [6] 0.041 | [7] 0.059 | [8] -0.081 | [9] 0.048 | vemurafenib 0.016 | [10] -0.172 | givinostat 0.035 | barasertib -0.047

TTC33 (UniProt Q6PID6)
inactive: IRAK-1-4 Inhibitor I 0.059 | ibrutinib 0.058 | [1] -0.121 | ralimetinib 0.009 | [2] -0.023 | [3] -0.075 | [4] 0.139 | pinometostat 0.111 | [6] -0.046 | [7] -0.025 | [8] -0.059 | [9] -0.189 | Nexturastat A 0.026 | vemurafenib -0.07 | [10] -0.002 | [11] -0.471 | givinostat -0.062 | barasertib 0.079

TUBAL3 (UniProt A6NHL2)
inactive: IRAK-1-4 Inhibitor I -0.046 | ibrutinib -0.005 | [1] -0.039 | ralimetinib -0.044 | [2] -0.047 | [3] 0.003 | [4] -0.102 | pinometostat -0.108 | [5] -0.094 | [6] 0.152 | [7] -0.062 | [8] 0.005 | [9] 0.094 | Nexturastat A -0.106 | vemurafenib 0.121 | [10] -0.033 | [11] -0.207 | givinostat 0.006 | barasertib -0.028

TTI1 (UniProt O43156)
inactive: IRAK-1-4 Inhibitor I -0.012 | ibrutinib 0.009 | [1] -0.065 | ralimetinib 0.1 | [2] -0.113 | [3] -0.059 | [4] 0.016 | pinometostat 0.13 | [5] 0.074 | [6] 0.147 | [7] -0.027 | [8] 0.086 | [9] -0.026 | Nexturastat A 0.02 | vemurafenib 0.082 | [10] 0.095 | [11] -0.016 | givinostat 0.135 | barasertib 0.068

UBE3B (UniProt Q7Z3V4)
inactive: IRAK-1-4 Inhibitor I -0.182 | ibrutinib -0.019 | [1] -0.068 | ralimetinib -0.296 | [2] -0.154 | [4] 0.001 | pinometostat 0.239 | [5] -0.188 | [6] 0.142 | [7] 0.086 | [8] -0.03 | [9] 0.007 | Nexturastat A 0.014 | [10] -0.099 | barasertib -0.057

TTF2 (UniProt Q9UNY4)
inactive: IRAK-1-4 Inhibitor I -0.04 | [1] 0.061 | ralimetinib 0.08 | [2] 0.067 | [3] -0.091 | [4] 0.115 | pinometostat 0.18 | [12] -0.05 | [5] 0.117 | [6] -0.051 | [7] -0.158 | [8] -0.095 | [9] -0.072 | Nexturastat A 0.363 | vemurafenib 0.053 | [10] -0.2 | [11] 0.028 | givinostat 0.067
